# Measurements as given in PubChem BioAssay (NCATS).
# Some of the results follow. The main result of the screen is listed elsewhere. These columns were measured beside it and carry no call. For some of these results: Compounds called inactive in the main read-out are mostly missing here. Potencies come from curve fits of mixed quality, noted in brackets.
# Columns and labels:
# [1] = qHTS Assay for Inhibitors of PDE-IV (AID 607); conditions: HEK293 ACTOne CNG channel cells, membrane potential fluorescence; measured here: parental cell counter-screen
# Outline: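 The readout is membrane depolarisation from a cAMP-sensing CNG channel, detected with a potential dye at ex 535/em 590. Cells were HEK293-derived (endogenous PDE-IV) at 1000 cells/well, titrated up to 22.9 uM final.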
# [2] = qHTS Assay for Lipid Storage Modulators (AID 1519); conditions: Drosophila S3 cells, BODIPY lipid droplet/cell ratio, laser cytometry, cells loaded with oleic acid
# Outline: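 Cells seeded at 5,000 per well were treated with compounds over a concentration series and loaded with oleic acid (400 uM, as added). Lipid droplet fluorescence (488 nm excitation, 500-530 nm channel) was read by laser-scanning cytometry and normalized to 20 uM Triacsin C.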
# [3] = S16 Schwann cell PMP22 intronic element beta-lactamase assay (AID 624044); conditions: S16 rat Schwann cells, PMP22 element beta-lactamase FRET, 24 h
# Outline: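 Rat S16 Schwann cells with beta-Lac driven by a PMP22 intronic element, compound-treated 24 h at 37 °C. LiveBLAzer FRET B/G read: 460 nm normalized to potassium clavulanate vs DMSO; 535 nm FRET as viability; concentration-effect curves classified.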
# [4] = A High-Content qHTS Against Drug Library for the Identification of Small Molecules that Inhibit DYT1 Early Onset Primary Dystonia-Associated Cell Pathology (AID 1645839); conditions: HEK293 Flp-In EGFP-delE TorsinA, punctate imaging, 48 h; measured here: cell count cytotoxicity
# Outline: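 In this high-content image screen, delE TorsinA mislocalization in inducible Flp-In 293 cells is scored as %pathology, with cell count serving as the counterscreen. Compound exposure lasts 48 h under tetracycline induction in reduced-serum medium.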
# [5] = qHTS drug screen for cell cycle checkpoint inhibitors in PARPi-resistant BRCA-mutant ovarian cancer cell lines. (AID 1963452); conditions: PEO1/OlaR viability, CellTiter-Glo luminescence, 96 h
# Outline: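 PEO1, PEO4 and PEO1/OlaR ovarian cancer cells, 600 per well, exposed 96 h at 37C to a dilution series. Viability read by CellTiter-Glo luminescence, normalized to DMSO and empty wells; activity summarized as Z-AUC.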
# [6] = measured here: cell count channel max response
# [7] = measured here: cell number channel AC50
# [8] = measured here: lipid (BODIPY) channel AC50
# [9] = measured here: lipid channel max response
# [10] = measured here: 460 nm blue channel
compound,measurement,setting,value
COc1ccccc1CNc1ccnc(-c2ccccc2OC)n1,AC50,[1],"12.6 µM [rising, single point]"
same,max response,[2]; [6],9.86%
same,AC50,[2]; [7],"1.78 µM [rising, full curve]"
same,AC50,[2]; [8],"1.58 µM [rising, full curve]"
same,max response,[2]; [9],9.38%
Cc1nc2cnc(Oc3cccc(Cl)c3)nc2n(Cc2ccc(F)cc2)c1=O,AC50,[1],"10 µM [rising, single point]"
same,max response,[2]; [6],29%
same,AC50,[2]; [7],"2.82 µM [rising, full curve, poor fit]"
same,AC50,[2]; [8],"3.16 µM [rising, full curve]"
same,max response,[2]; [9],34.4%
Cc1cccc(CNc2ncncc2-c2ccccc2Cl)c1,AC50,[1],"15.8 µM [rising, single point]"
same,max response,[2]; [6],34.6%
same,AC50,[2]; [7],"5.62 µM [rising, full curve, poor fit]"
same,AC50,[2]; [8],"3.16 µM [rising, full curve, poor fit]"
same,max response,[2]; [9],38.2%
COc1ccc2c(=O)cc(-c3ccc(O)cc3)oc2c1,AC50,[1],"15.8 µM [rising, single point]"
same,max response,[2]; [6],111%
same,AC50,[2]; [7],"7.94 µM [rising, partial curve]"
same,AC50,[2]; [8],"8.91 µM [rising, partial curve]"
same,max response,[2]; [9],149%
COc1ccccc1CC(=N)N1C[C@@H]2C(=O)CCC(c3ccccc3)(c3ccccc3)[C@@H]2C1,AC50,[1],"15.8 µM [rising, single point]"
same,max response,[2]; [6],83.6%
same,AC50,[2]; [7],"3.98 µM [rising, full curve]"
same,AC50,[2]; [8],"3.55 µM [rising, full curve]"
same,max response,[2]; [9],108%
O=C(NCCCN1CCCCCC1)[C@@H](c1ccccc1)C1CCCCC1,AC50,[1],"12.6 µM [rising, partial curve]"
same,max response,[2]; [6],35.7%
same,AC50,[2]; [7],"7.08 µM [rising, full curve, poor fit]"
same,AC50,[2]; [8],"7.08 µM [rising, full curve, poor fit]"
same,max response,[2]; [9],43.4%
CCOC(=O)C1=C[C@@]2(CC)CCCN3CCc4c(n1c1ccccc41)[C@H]32,AC50,[3]; [10],"1.99 µM [falling, full curve, poor fit]"
CCCCN(CCCC)CCC(O)c1cc2c(Cl)cc(Cl)cc2c2cc(C(F)(F)F)ccc12 (configuration not stated),max response,[2]; [6],-29.6%
same,AC50,[2]; [8],"12.6 µM [falling, partial curve, poor fit]"
same,max response,[2]; [9],-33.1%
same,AC50,[4],"7.94 µM [falling, partial curve, poor fit]"
same,AC50,[5]; measured here: PEO1 parental viability,"17.4 µM [falling, single point]"
same,AC50,[5]; measured here: PEO4 viability,"21.9 µM [falling, single point]"
O=C(O)c1cc(O)c(O)c(O)c1,max response,[2]; [6],16%
same,AC50,[2]; [8],"25.1 µM [rising, single point]"
same,max response,[2]; [9],34.1%
same,AC50,[4],"3.55 µM [falling, partial curve, poor fit]"
Cc1cc(-c2ccc(N=Nc3ccc4c(S(=O)(=O)O)cc(S(=O)(=O)O)c(N)c4c3O)c(C)c2)ccc1N=Nc1ccc2c(S(=O)(=O)O)cc(S(=O)(=O)O)c(N)c2c1O,max response,[2]; [6],93.6%
same,AC50,[2]; [7],"12.6 µM [rising, partial curve]"
same,AC50,[2]; [8],"12.6 µM [rising, partial curve]"
same,max response,[2]; [9],129%
same,AC50,[3]; [10],"1.41 µM [falling, full curve, poor fit]"
same,AC50,[3]; measured here: 530 nm viability channel,"2 µM [falling, full curve, poor fit]"
O=C(O)CP(=O)(O)O,max response,[2]; [6],41.8%
same,AC50,[2]; [7],"3.98 µM [falling, partial curve, poor fit]"
same,AC50,[2]; [8],"3.55 µM [falling, full curve, poor fit]"
same,max response,[2]; [9],40.9%
same,AC50,[3]; [10],"0.0398 µM [falling, full curve, poor fit]"

# Another view of part of the listing above.
compound | measurement | setting | value
COc1ccc2c(=O)cc(-c3ccc(O)cc3)oc2c1 | AC50 | [1] | 15.8 µM [rising, single point]
O=C(O)c1cc(O)c(O)c(O)c1 | AC50 | [4] | 3.55 µM [falling, partial curve, poor fit]
Cc1cc(-c2ccc(N=Nc3ccc4c(S(=O)(=O)O)cc(S(=O)(=O)O)c(N)c4c3O)c(C)c2)ccc1N=Nc1ccc2c(S(=O)(=O)O)cc(S(=O)(=O)O)c(N)c2c1O | AC50 | [3]; measured here: 530 nm viability channel | 2 µM [falling, full curve, poor fit]
